# At least one compound was matched to its structure with a doubt left.
# Tested on: wild-type (AAVS1) MOLM13 cells
# Assay: Xenotransplantation model, survival of NSG mice engrafted with wild-type (AAVS1) MOLM13 cells
# Format: in vivo
# Details: decitabine 0.1 mg/kg, AZD6738 50 mg/kg, 14 days
structure (smiles),measurement,value
Nc1ncn([C@H]2C[C@H](O)[C@@H](CO)O2)c(=O)n1 [decitabine],survival,no significant benefit

# Source: patent US20240050435A1, “METHODS FOR TREATING CANCER” (Washington University, priority 2022, published 2024)
